Data: patent US20240294588A1, “C2 Domain Therapeutics and Uses Thereof” (University of Maryland, Baltimore, priority 2021, published 2024)
Entries after “also recorded” stand apart in the source; their conditions may differ. Read-outs that look alike come from different tables or passages of the source.

System: dysferlin-null A/J myofibers
Assay: Distribution of Venus-tagged constructs (triad junctions vs Z-disks) in transfected myofibers
Format: cell-based, mouse
Description: FIGS. 2A-2E show the DYSF-C2A distribution and partial protection against loss of Ca^2+ transient and development of Ca^2+ waves after OSI. The construct in FIG. 2A was electroporated into Flexor digitorum brevis (FDB) muscles of dysferlin-null A/J mice and imaged 10 d later. […] Distribution of the Venus construct is indicated to the right. Recovery is partial (in the upper region of fiber). FIG. 2D quantitates results from several dozen fibers of each type. […] Higher levels of expression show more consistent recoveries and suppression of waves than lower levels.
The constructs in FIG. 4A were electroporated and visualized as in FIG. 2. […] Recovery is complete. FIG. 4D quantitates results from several dozen fibers transfected with each construct. […] Note the high level of Ca release and low frequency of waves indicated by the y-intercepts at low transfection levels.
A Venus-tagged version of the C2 domain of PKCα was expressed in both control (C57Bl/6) (FIG. 12A) and dysferlin-null (A/J) myofibers (FIG. 12B) and the transfected fibers were imaged. […] They help to explain the ability of the chimeric constructs containing Ven-C2-PKCα to potentiate the beneficial effects of the DYSF-C2A domain.

Substance	Distribution of construct in myofibers	Distribution of construct in myofibers (listed as Ven-C2-PKCα)
C2 domain of PKCα: isolated C2 domain of PKCα (XP_024306597.1, residues 71-229), tagged with a Venus moiety	concentrates at the level of A-I junctions, probably at TJs; also recorded: concentrated at the level of the A-I junctions of A/J myofibers	partially accesses the triad junctions of some A/J fibers
DYSF-C2A: C2A domain of dysferlin (AF075575.1, amino acids 1-100) expressed on its own as a Venus fusion protein; SEQ ID NO: 4	accumulation primarily at Z-disks; also recorded: distributed throughout the myoplasm and did not concentrate at TJs	
